No constants are given. Whether binding was seen depends on the method and setting. Binding seen in cells or lysates may run through a third protein. Some entries that bind do so weakly or less than the wild type. For part of these data: Where a sequence is shown, tags or fusion partners need not be part of it.
Legend:
[1] = target: T1, RBM41 (endogenous, HeLa nuclear extract) (human (endogenous in HeLa)) (UniProt Q96IZ5); experiment: co-sedimentation; 10–30% glycerol gradient of HeLa S3 nuclear extract, 29 000 rpm, 4°C, 18 h; fractions analysed by western and northern blot
T1 sequence: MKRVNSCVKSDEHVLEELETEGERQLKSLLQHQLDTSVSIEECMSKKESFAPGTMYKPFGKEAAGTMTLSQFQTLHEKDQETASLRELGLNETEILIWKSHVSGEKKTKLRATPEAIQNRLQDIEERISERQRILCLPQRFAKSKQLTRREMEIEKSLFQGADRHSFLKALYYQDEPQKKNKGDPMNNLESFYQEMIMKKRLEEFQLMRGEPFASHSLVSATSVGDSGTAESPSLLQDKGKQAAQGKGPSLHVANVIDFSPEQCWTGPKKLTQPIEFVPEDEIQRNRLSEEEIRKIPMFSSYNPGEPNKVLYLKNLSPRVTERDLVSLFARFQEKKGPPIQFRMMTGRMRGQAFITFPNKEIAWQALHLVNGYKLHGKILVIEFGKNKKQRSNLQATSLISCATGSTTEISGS

Chains of the proteins cited; added tags and fusions are not shown.
UniProt Q8TBF4: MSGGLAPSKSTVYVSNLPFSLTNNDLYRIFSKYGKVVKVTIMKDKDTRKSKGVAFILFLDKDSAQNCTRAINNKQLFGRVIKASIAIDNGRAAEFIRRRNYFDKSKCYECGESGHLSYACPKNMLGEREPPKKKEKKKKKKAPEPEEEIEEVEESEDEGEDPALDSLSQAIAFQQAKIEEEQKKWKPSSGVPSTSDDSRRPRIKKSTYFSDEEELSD

V5-65K (human) = target: T2, V5-65K (human) (UniProt Q96LT9); experiment: co-IP; anti-V5 or control antibody crosslinked (BS3) to Dynabeads Protein G; lysate of Flp-In T-REx 293 cell lines expressing V5-RBM41 or V5-65K; lysis buffer 20 mM HEPES pH 7.9, 137 mM NaCl, 10% glycerol, 1% NP-40; western blot
T2 sequence: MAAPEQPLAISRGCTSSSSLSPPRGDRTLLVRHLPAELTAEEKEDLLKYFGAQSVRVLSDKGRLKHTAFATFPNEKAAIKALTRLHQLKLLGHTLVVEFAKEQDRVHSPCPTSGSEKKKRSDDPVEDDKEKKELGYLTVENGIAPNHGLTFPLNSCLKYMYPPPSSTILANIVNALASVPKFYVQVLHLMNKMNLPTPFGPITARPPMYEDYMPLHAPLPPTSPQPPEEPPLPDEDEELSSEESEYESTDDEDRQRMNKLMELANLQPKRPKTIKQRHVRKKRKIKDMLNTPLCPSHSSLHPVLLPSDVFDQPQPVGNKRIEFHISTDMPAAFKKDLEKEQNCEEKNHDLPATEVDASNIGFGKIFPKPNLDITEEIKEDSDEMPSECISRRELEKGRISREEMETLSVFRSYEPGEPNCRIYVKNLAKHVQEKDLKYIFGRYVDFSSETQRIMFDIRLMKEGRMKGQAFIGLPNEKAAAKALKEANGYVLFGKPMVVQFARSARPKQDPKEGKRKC

V5-RBM41 (human) = target: T3, V5-RBM41 (human) (UniProt Q96IZ5); experiment: as above
T3 sequence: T1 sequence

binding [1]: binds
binding (V5-65K (human)): binds
binding (V5-RBM41 (human)): binds
Substance: U11/U12-31K (ZCRB1) (from UniProt Q8TBF4 1-217)

Reference: article PMC11039992
